Measured values from patent US20160219829A1, “ANTI-ODOR MATERIAL FOR ANIMAL LITTERS USING PHOSPHOR[…] POWDER FORM” (priority 2013, published 2016).

Test: Dosimetry of n-BTPT samples without contact with urea solution (ammonia naturally released by n-BTPT)
Conditions: Table 12, no urea solution

With `CCCCNP(N)(N)=S` [n-BTPT, N-(n-butyl)thiophosphoric triamide] the “Urea/Urease dosimetry (ammonia release without urea)” value (final pure n-BTPT equivalent 0.023%) was 15 ppm, the “Urea/Urease dosimetry (ammonia release without urea)” value (final pure n-BTPT equivalent 0.035%) was 12 ppm and the “Urea/Urease dosimetry (ammonia release without urea)” value (final pure n-BTPT equivalent 0.050%) was 20 ppm.
